Sequences of proteins named here, by UniProt entry; tags and fusion partners are left off.
UniProt P03372, whole entry: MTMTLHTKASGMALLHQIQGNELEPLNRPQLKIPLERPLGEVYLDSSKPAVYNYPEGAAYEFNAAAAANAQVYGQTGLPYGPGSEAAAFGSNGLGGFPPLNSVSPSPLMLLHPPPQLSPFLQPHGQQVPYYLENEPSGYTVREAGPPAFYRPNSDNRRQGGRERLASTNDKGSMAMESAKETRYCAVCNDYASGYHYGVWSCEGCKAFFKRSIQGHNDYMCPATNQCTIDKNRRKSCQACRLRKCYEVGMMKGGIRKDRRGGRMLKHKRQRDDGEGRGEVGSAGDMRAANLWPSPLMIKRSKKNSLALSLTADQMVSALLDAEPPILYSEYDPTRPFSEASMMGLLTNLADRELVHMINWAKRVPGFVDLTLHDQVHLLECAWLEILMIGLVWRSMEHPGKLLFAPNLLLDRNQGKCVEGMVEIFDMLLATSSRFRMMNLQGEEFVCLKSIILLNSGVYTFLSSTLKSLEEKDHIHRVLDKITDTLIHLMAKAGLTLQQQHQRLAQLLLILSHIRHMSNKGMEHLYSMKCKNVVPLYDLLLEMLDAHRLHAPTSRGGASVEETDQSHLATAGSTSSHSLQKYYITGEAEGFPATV

According to article PMC2568806:

Target: recombinant estrogen receptor alpha (rERα) (UniProt P03372)
Assay: competition with a labelled probe
Conditions: HESC nuclear extract, did not efficiently compete for labeled PCNA-ERE1; 25 mM Tris-HCl pH 8.0, 50 mM KCl, 6.25 mM MgCl2, 10% glycerol, 0.5 mM DTT; 5 µg HESC nuclear extract + 170 nM rERα; 5% acrylamide gel in TBE; temperature not stated; commercial protein; label: unlabeled competitor

GGGAGTTTGTTTTTTGCCATATTTAACATTG (double strand) [PCNA-ERE1mut]
binding result: binds more weakly

The exact form of at least one protein or probe is not confirmed. Weaker means in comparison with the reference protein, sequence or condition of that experiment.
